Publication PMC12172489
These are yes or no findings as the source states them, for the method shown. Binding seen in cells or lysates may run through a third protein. Here binding means that the protein was enriched with, or labelled near, the bait; the list need not be complete.

Protein sequences, listed by entry. Tags and fused reporters are not part of them.
UniProt P03427: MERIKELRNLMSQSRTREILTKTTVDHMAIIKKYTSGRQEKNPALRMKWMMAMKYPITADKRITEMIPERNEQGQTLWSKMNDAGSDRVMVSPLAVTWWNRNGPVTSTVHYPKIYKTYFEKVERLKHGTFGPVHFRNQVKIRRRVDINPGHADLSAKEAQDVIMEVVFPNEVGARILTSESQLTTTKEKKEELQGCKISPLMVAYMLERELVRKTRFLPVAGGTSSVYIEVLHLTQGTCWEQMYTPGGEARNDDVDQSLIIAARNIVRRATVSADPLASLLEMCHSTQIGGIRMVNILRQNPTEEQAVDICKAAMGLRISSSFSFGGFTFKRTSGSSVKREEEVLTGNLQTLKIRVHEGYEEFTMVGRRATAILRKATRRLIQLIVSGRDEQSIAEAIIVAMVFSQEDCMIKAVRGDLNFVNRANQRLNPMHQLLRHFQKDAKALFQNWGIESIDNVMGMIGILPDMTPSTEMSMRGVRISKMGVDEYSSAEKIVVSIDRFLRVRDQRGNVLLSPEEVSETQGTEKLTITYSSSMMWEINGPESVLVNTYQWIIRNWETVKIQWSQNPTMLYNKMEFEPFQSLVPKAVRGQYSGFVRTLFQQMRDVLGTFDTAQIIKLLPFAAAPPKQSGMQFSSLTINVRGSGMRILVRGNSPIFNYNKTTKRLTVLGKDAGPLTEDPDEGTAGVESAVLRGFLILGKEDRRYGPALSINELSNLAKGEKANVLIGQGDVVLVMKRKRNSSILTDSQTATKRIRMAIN

B1: Heterogeneous nuclear ribonucleoprotein M (hnRNPM) (protein, UniProt P52272 1-730)
chain: MAAGVEAAAEVAATEIKMEEESGAPGVPSGNGAPGPKGEGERPAQNEKRKEKNIKRGGNRFEPYANPTKRYRAFITNIPFDVKWQSLKDLVKEKVGEVTYVELLMDAEGKSRGCAVVEFKMEESMKKAAEVLNKHSLSGRPLKVKEDPDGEHARRAMQKVMATTGGMGMGPGGPGMITIPPSILNNPNIPNEIIHALQAGRLGSTVFVANLDYKVGWKKLKEVFSMAGVVVRADILEDKDGKSRGIGTVTFEQSIEAVQAISMFNGQLLFDRPMHVKMDERALPKGDFFPPERPQQLPHGLGGIGMGLGPGGQPIDANHLNKGIGMGNIGPAGMGMEGIGFGINKMGGMEGPFGGGMENMGRFGSGMNMGRINEILSNALKRGEIIAKQGGGGGGGSVPGIERMGPGIDRLGGAGMERMGAGLGHGMDRVGSEIERMGLVMDRMGSVERMGSGIERMGPLGLDHMASSIERMGQTMERIGSGVERMGAGMGFGLERMAAPIDRVGQTIERMGSGVERMGPAIERMGLSMERMVPAGMGAGLERMGPVMDRMATGLERMGANNLERMGLERMGANSLERMGLERMGANSLERMGPAMGPALGAGIERMGLAMGGGGGASFDRAIEMERGNFGGSFAGSFGGAGGHAPGVARKACQIFVRNLPFDFTWKMLKDKFNECGHVLYADIKMENGKSKGCGVVKFESPEVAERACRMMNGMKLSGREIDVRIDRNA
B2: DARS (protein, UniProt P14868 1-501)
chain: MPSASASRKSQEKPREIMDAAEDYAKERYGISSMIQSQEKPDRVLVRVRDLTIQKADEVVWVRARVHTSRAKGKQCFLVLRQQQFNVQALVAVGDHASKQMVKFAANINKESIVDVEGVVRKVNQKIGSCTQQDVELHVQKIYVISLAEPRLPLQLDDAVRPEAEGEEEGRATVNQDTRLDNRVIDLRTSTSQAVFRLQSGICHLFRETLINKGFVEIQTPKIISAASEGGANVFTVSYFKNNAYLAQSPQLYKQMCICADFEKVFSIGPVFRAEDSNTHRHLTEFVGLDIEMAFNYHYHEVMEEIADTMVQIFKGLQERFQTEIQTVNKQFPCEPFKFLEPTLRLEYCEALAMLREAGVEMGDEDDLSTPNEKLLGHLVKEKYDTDFYILDKYPLAVRPFYTMPDPRNPKQSNSYDMFMRGEEILSGAQRIHDPQLLTERALHHGIDLEKIKAYIDSFRFGAPPHAGGGIGLERVTMLFLGLHNVRQTSMFPRDPKRLTP

Target: PB2-TAP fusion protein of influenza A/WSN/33 (WSN, H1N1) virus (influenza A/WSN/33 (WSN, H1N1) virus) (UniProt P03427)
Experiment: affinity purification with mass spectrometry

Binder | binding
B1 | binds
B2 | binds
